Hit rate of the full screen: of about 78,000 compounds, about 1,800 (2.3%) were called active. Inconclusive means that the source gave no clear call. Such entries were picked first, then a sample of the others. Rule as the data show it: active = inhibition above about 30%; inconclusive = mostly about 10% to 28%; inactive = weaker than that.
biological target: Interleukin-1 receptor-like 1 (Homo sapiens) (UniProt Q01638); test: inhibitors of human ST2 (IL1RL1) binding to IL-33, primary screen, biochemical, AlphaLISA (AID 1259354); details: AlphaLISA ST2-Fc/biotin-IL-33 interaction, 1 h; at 17 µM, active compounds read high

The chains behind the UniProt entries cited, without tags or fusion partners. Where a name states a change or a piece, a line headed by the entry shows the natural chain unless it says otherwise.
UniProt Q01638: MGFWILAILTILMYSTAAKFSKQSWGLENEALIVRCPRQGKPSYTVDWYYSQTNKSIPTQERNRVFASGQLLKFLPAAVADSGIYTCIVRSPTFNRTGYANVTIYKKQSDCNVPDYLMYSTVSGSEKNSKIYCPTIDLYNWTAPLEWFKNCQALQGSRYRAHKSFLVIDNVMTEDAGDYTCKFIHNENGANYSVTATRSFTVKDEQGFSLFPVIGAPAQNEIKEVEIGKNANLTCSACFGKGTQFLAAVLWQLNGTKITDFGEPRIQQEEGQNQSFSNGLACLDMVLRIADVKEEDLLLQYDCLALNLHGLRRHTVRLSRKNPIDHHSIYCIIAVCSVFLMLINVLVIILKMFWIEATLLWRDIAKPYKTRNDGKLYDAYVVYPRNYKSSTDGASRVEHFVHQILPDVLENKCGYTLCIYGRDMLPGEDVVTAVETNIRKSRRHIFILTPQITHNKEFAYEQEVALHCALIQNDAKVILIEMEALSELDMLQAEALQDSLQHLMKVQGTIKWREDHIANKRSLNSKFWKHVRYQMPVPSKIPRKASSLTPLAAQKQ

SMILES | inhibition
CCCCOc1ccc(CN2CCN(C)CC2)cc1 | inconclusive: 16%
CN(C)c1ccc(CNC[C@H]2C[C@@H]3CCN2C[C@@H]3c2cc(C3CCCCC3)nn2C)cc1 | inconclusive: 12%
CC1OC1P(=O)(O)O (stereo not drawn) | inconclusive: 20%
COc1ccc(-c2cc([C@H]3CN4CC[C@H]3C[C@@H]4CNS(=O)(=O)c3ccc(Cl)cc3)n(C)n2)cc1OC | inconclusive: 11%
COc1ccc(-c2cc([C@H]3CN4CC[C@H]3C[C@@H]4CNS(=O)(=O)c3ccccc3)n(C)n2)cc1OC | inconclusive: 14%
C#C[C@H]1CN2CC[C@H]1C[C@@H]2CNS(=O)(=O)c1ccc(Cl)cc1 | inactive
COc1cc(OC)c(CN2CCN(c3ccccc3)CC2)cc1Br | active: 36%
CCOc1ccc(-n2c(C)nc3ccccc3c2=O)cc1 | inconclusive: 10%
CC1CCN(C[C@H]2CN3CC[C@H]2C[C@@H]3CNC(=O)c2ccc(N(C)C)cc2)CC1 | inconclusive: 14%
COc1cc(CN2CCN(Cc3ccccc3)CC2)ccc1O | inconclusive: 14%
CC(C)NC(=O)OC[C@H]1C[C@@H]2CCN1C[C@@H]2c1cc(-c2ccccc2)nn1C | inconclusive: 13%
O=c1c2ccccc2nc(/C=C/c2ccccc2)n1-c1ccc(F)cc1 | inconclusive: 26%
COC1=CC(=O)O[C@@H](/C=C/c2ccc3c(c2)OCO3)C1 | inconclusive: 20%
C[N+]1(C)CCc2cc3c(cc2[C@H]1[C@@H]1OC(=O)c2c1ccc1c2OCO1)OCO3 | inconclusive: 29%
COc1ccccc1-c1cc([C@H]2CN3CC[C@H]2C[C@@H]3CNC(=O)NC2CCCCC2)n(C)n1 | inconclusive: 12%
C#C[C@H]1CN2CC[C@H]1C[C@@H]2CNS(=O)(=O)c1ccc(C)cc1 | inconclusive: 13%
COCc1cn(C[C@H]2C[C@@H]3CCN2C[C@@H]3C(=O)NC(C)C)nn1 | inactive
CN(Cc1ccccc1)Cc1cn(C[C@H]2CC3CCN2C[C@@H]3C(=O)NC2CCCCC2)nn1 (stereo partly drawn) | inconclusive: 13%
O=c1c2ccccc2nc(/C=C/c2ccccc2)n1-c1cccc(F)c1 | inconclusive: 19%
COc1ccccc1-c1cc([C@H]2CN3CC[C@H]2C[C@@H]3CNC(=O)c2cccs2)n(C)n1 | inconclusive: 14%
S=C(NCc1ccco1)NC[C@H]1C[C@@H]2CCN1C[C@@H]2CN1CCCCC1 | inactive

Exported as comma-separated lines: entries from further up
SMILES,inhibition
COc1cc(OC)c(CN2CCN(c3ccccc3)CC2)cc1Br,active: 36%
CCOc1ccc(-n2c(C)nc3ccccc3c2=O)cc1,inconclusive: 10%

Going on with the list.

SMILES | inhibition
Cc1ccc(S(=O)(=O)NC[C@H]2C[C@@H]3CCN2C[C@@H]3CN2CCC(C)CC2)cc1 | inconclusive: 19%
CC1=CC(=O)[C@@H](O)[C@@]2(C)C1C[C@H]1OC(=O)[C@H](O)[C@@]3(O)[C@@H](C)[C@@H](O)[C@H](O)C2[C@@]13C (stereo partly drawn) | inconclusive: 28%
CN1[C@H]2CC[C@@H]1CN(c1ccnc(N)n1)CC2 | inactive
Nc1c2c(nc3ccccc13)CCCCC2 | inactive
CCC(=O)Nc1ccc(OCC(=O)N2CCC(N(C)C)C2)cc1 (stereo not drawn) | inconclusive: 21%
CCOc1ccccc1N1CCN(Cc2ccc(Cl)cc2)CC1 | inconclusive: 27%
CN(CCc1ccccn1)C[C@H]1CN2CC[C@H]1C[C@@H]2CNC(=S)NCCN1CCOCC1 | inconclusive: 12%
Cc1ccccc1-c1ccc2n(c1=O)C[C@H]1C[C@@H]2CN(Cc2cccc(C#N)c2)C1 | inconclusive: 19%
CN1[C@@H]2CC[C@H]1CC(OC(=O)c1cc(Cl)cc(Cl)c1)C2 (stereo partly drawn) | inconclusive: 25%
Cc1ccc2c(c1)N(CCC(=O)N1CCC3(CC1)OCCO3)C(=O)C(C)O2 (stereo not drawn) | inconclusive: 24%
COc1ccc(C(=O)NC[C@H]2C[C@@H]3CCN2C[C@@H]3c2cc(-c3ccc4ccccc4c3)nn2C)cc1 | inactive
C=CCN(C)C[C@H]1CN2CC[C@H]1C[C@@H]2CNS(=O)(=O)c1ccc(Cl)cc1 | inconclusive: 16%
O=S(=O)(NC[C@H]1C[C@@H]2CCN1C[C@@H]2CN1CCCCC1)c1cccs1 | inactive
OCCN1CCN(Cc2ccc(Cl)c(Cl)c2)CC1 | inactive
CNc1ccnc(NCCC23CCCN2CCC3)n1 | inactive
COC(=O)c1cccc(NC(=S)NC[C@H]2C[C@@H]3CCN2C[C@@H]3c2cc(-c3ccccc3OC)nn2C)c1 | inactive
O=[N+]([O-])c1ccc(NCc2ccccc2)c2ncccc12 | active: 51%
O=C(NC[C@H]1C[C@@H]2CCN1C[C@@H]2CN1CCN(c2ncccn2)CC1)c1ccco1 | inconclusive: 11%
CC(C)(C)c1cc(C=C(C#N)C#N)cc(C(C)(C)C)c1O | inconclusive: 19%
O=[N+]([O-])c1ccc(O[C@@H]2O[C@H](CO)[C@@H](O)[C@H](O)[C@H]2F)c([N+](=O)[O-])c1 | inconclusive: 17%
COC(=O)c1ccc(CNC(=O)CN2C[C@@H]3C[C@H](C2)c2cccc(=O)n2C3)o1 | inactive

Pulled one by one from the list above:
SMILES | inhibition
Cc1ccc2c(c1)N(CCC(=O)N1CCC3(CC1)OCCO3)C(=O)C(C)O2 (stereo not drawn) | inconclusive: 24%
CN(CCc1ccccn1)C[C@H]1CN2CC[C@H]1C[C@@H]2CNC(=S)NCCN1CCOCC1 | inconclusive: 12%

Next part

SMILES | inhibition
Cc1nc(-c2ccccc2)cc([C@H]2CN3CC[C@H]2C[C@@H]3CNC(=O)c2ccco2)n1 | inconclusive: 19%
COc1ccccc1NC(=O)N1C[C@@H]2C[C@H](C1)c1c(C3CCCCC3)ccc(=O)n1C2 | inconclusive: 17%
CCCS(=O)(=O)Nc1ccc2n(c1=O)C[C@H]1C[C@@H]2CN(C(=O)c2ccccc2)C1 | inconclusive: 12%
COc1ccc(OC)c(CN2CCN(c3ccc(Cl)cc3)CC2)c1 | active: 34%
COc1ccc(CN2CCN(c3ccccc3F)CC2)cc1 | inactive
CCCNC(=O)OC[C@H]1C[C@@H]2CCN1C[C@@H]2c1cc(-c2ccc(F)cc2)nc(C)n1 | inconclusive: 13%
COc1ccc(N2CCN(Cc3ccc(Cl)cc3Cl)CC2)cc1 | active: 36%
CCCN1CCN(C(=O)Cc2c(C(=O)O)[nH]c3ccccc23)CC1 | inactive
O=C(c1ccccc1)N1C[C@@H]2C[C@H](C1)c1c(/C=C/c3ccc(Cl)cc3)ccc(=O)n1C2 | inactive
COc1cccc(CN2CCN(c3ccc(F)cc3)CC2)c1OC | inactive
CO[C@@H]1[C@@H](O)[C@@H](O[C@H]2CC[C@]3(C=O)C4CC[C@]5(C)[C@@H](C6=CC(=O)OC6)CC[C@]5(O)[C@@H]4CC[C@H]3C2)O[C@@H](C)[C@H]1O[C@@H]1O[C@H](CO[C@@H]2O[C@H](CO)[C@@H](O)[C@H](O)[C@H]2O)[C@@H](O)[C@H](O)[C@H]1O (stereo partly drawn) | inconclusive: 17%
COc1cc(CN2CCN(c3ccc(F)cc3)CC2)ccc1O | inactive
O=C(O)CSCC(=O)N1C[C@@H]2C[C@H](C1)c1c(-c3ccc(Cl)cc3)ccc(=O)n1C2 | inconclusive: 10%
CCN(CC)C[C@H]1CN2CC[C@H]1C[C@@H]2CNC(=O)c1ccccc1 | inconclusive: 11%
NC(N)=Nc1ccc2[nH]c3c(c2c1)C[C@@]1(O)[C@H]2Cc4ccc(O)c5c4[C@@]1(CCN2CC1CC1)[C@H]3O5 | inconclusive: 13%
O=C(O)C1CN2CCC1CC2 (stereo not drawn) | inconclusive: 11%
CCC1(C2=NCCN2)Cc2ccccc2O1 (stereo not drawn) | inconclusive: 10%
N#Cc1cccc(-c2ccc(=O)n3c2[C@@H]2C[C@@H](CN(C(=O)NC4CCCCC4)C2)C3)c1 | inconclusive: 13%
CN(C)c1ccc(CN2CCN(c3ccc(F)cc3)CC2)cc1 | active: 38%
COC[C@H]1CCCN1C[C@H]1CN2CC[C@H]1C[C@@H]2CNC(=O)Nc1ccsc1 | inconclusive: 18%
Cc1ccc(CN2CCN(c3cc(C)ccc3C)CC2)cc1 | inconclusive: 15%

SMILES | inhibition
COc1ccc(-c2cc([C@H]3CN4CC[C@H]3C[C@@H]4CNC(=O)C(C)(C)C)nc(C)n2)cc1OC | inconclusive: 15%
CS(=O)(=O)c1ccc(CN2CCCC(C(=O)c3ccccn3)C2)cc1 (stereo not drawn) | inconclusive: 21%
COCCC(=O)N1C[C@@H]2C[C@H](C1)c1ccc(-c3ccc(OC(F)(F)F)cc3)c(=O)n1C2 | inconclusive: 12%
CN(C[C@H]1CN2CC[C@H]1C[C@@H]2CNC(=O)Nc1ccsc1)c1ccccc1 | inconclusive: 11%
CC(C)(O)c1cn(C[C@H]2CC3CCN2C[C@@H]3C(=O)Nc2nccs2)nn1 (stereo partly drawn) | inactive
N#Cc1cccc(-c2ccc3n(c2=O)C[C@H]2C[C@@H]3CN(C(=O)c3cccs3)C2)c1 | inactive
CN1CCN([C@H]2[C@@H]3OC[C@@H](O3)[C@@H](NCc3ccccn3)[C@@H]2O)CC1 | inactive
COCCNC(=O)[C@H]1CN2CC[C@H]1C[C@@H]2Cn1cc(-c2ccc(C(C)(C)C)cc2)nn1 | inconclusive: 18%
O=c1c2ccccc2nc(/C=C/c2ccc(Br)cc2)n1-c1ccc([N+](=O)[O-])cc1 | inconclusive: 12%
C#CCN(C)C[C@H]1CN2CC[C@H]1C[C@@H]2CNC(=S)NCc1ccco1 | inconclusive: 19%
CC(C)(O)c1cn(C[C@H]2C[C@@H]3CCN2C[C@@H]3C(=O)NC2CC2)nn1 | inactive
COc1ccc(CCNC2CCC(C)C2)cc1 (stereo not drawn) | active: 50%
CN(C)C(=O)C(c1ccccc1)c1ccccc1 | inconclusive: 16%
CCc1nc(C)sc1CN1CCC2(CC1)C(=O)N(C)c1ccccc12 | inconclusive: 13%
COc1ccc(C(=O)N2C[C@@H]3C[C@H](C2)c2c(NC(=O)CSC)ccc(=O)n2C3)cc1 | inconclusive: 26%
O=C1C2CCCN2C(c2ccc(Cl)c(Cl)c2)N1c1ccccn1 (stereo not drawn) | inconclusive: 13%
C=C[C@H]1CN2CC[C@H]1C[C@@H]2CNC(=S)NCC | inactive
COCCN1CCCC2(CCN(C(=O)Cc3cccnc3)C2)C1 (stereo not drawn) | inactive
CCOc1ccccc1N1CCN(Cc2ccc(SC)cc2)CC1 | inconclusive: 27%
Cc1nc(-c2ccco2)cc([C@H]2CN3CC[C@H]2C[C@@H]3CNCc2ccc(N(C)C)cc2)n1 | inconclusive: 10%

Source: PubChem BioAssay AID1259354 (Paczesny and Yang Labs, IUPUI and University of Michigan, 2018)
